The target of the test is Sm-PLCβ2 (UniProt Q00722). In words: NanoBiT-Gq/PLC interaction assay in cells, after GPCR ligand stimulation.

Sequences of proteins named here, by UniProt entry; tags and fusion partners are left off. A change or cut given only in a name is not applied to a line headed by its entry.
UniProt Q00722: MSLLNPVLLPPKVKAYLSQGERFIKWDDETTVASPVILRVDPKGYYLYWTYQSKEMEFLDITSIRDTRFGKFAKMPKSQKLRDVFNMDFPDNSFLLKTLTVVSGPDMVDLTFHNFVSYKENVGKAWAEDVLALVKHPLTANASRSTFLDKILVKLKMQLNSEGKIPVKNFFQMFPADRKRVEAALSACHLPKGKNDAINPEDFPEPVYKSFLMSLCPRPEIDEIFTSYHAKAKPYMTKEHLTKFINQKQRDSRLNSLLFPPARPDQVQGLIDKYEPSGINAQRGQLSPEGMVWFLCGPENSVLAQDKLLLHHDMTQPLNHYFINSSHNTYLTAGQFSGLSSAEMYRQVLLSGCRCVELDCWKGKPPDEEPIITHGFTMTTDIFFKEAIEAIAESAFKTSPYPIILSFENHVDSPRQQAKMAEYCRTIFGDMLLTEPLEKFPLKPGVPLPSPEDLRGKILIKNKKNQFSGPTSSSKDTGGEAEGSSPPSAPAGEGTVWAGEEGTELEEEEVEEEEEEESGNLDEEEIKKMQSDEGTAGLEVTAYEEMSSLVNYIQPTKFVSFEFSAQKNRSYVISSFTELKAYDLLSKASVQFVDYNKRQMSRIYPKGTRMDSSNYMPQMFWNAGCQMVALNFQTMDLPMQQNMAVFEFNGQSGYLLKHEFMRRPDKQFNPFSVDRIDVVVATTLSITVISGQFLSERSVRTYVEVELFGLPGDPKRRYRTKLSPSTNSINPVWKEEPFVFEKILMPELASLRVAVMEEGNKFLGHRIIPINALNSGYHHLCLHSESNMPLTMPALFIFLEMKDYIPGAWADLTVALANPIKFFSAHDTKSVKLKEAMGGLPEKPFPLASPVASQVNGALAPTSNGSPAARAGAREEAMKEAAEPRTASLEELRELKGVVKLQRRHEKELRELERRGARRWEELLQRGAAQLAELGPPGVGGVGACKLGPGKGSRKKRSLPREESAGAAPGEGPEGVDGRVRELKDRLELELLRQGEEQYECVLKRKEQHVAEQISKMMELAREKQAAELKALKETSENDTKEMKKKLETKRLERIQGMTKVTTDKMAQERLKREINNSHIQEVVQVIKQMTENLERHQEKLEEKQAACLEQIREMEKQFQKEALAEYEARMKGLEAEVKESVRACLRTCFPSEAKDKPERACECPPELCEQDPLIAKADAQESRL
UniProt P29992: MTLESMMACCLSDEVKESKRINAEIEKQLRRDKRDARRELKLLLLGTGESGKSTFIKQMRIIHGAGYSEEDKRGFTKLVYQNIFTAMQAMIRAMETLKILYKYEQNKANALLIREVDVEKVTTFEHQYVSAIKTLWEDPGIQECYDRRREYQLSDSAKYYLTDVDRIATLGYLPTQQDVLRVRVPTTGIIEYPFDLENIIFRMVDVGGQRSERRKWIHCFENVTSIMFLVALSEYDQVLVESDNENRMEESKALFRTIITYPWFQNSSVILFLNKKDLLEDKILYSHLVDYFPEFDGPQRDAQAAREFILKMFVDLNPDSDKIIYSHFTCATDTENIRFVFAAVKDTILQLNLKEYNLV

For one substance, binding results are on record in patent US20220220185A1 (CELL NETWORKS, published 2022).

Results are given in words; binding and its absence hold for the method and conditions named. A result given as binding can be weak or reduced; the word gives no strength.

For “Gα11-Lg (LgBiT insertion at the αB-αC linker) (from UniProt P29992 1-359)”, the binding result is given as “binds”.
